PubChem BioAssay AID652243 – Drosophila RNAi Screening Center – 2013
Screen: 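Fly regulators of androgen-dependent reporter output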 (primary screen). System: Drosophila S2R+ cells. Knock-down reagent: long dsRNA against Drosophila genes. Time to read-out: 72 h (48 h, then 24 h hormone). Conditions: synthetic androgen R1881 at 10 nM for 24 h. Detection: 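Firefly light from an androgen-responsive reporter and Renilla control light per well, raw and unnormalised, for each of two replicates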. Direction: firefly reporter light: higher = more light from androgen-responsive reporter; Renilla control light: higher = more constitutive control signal (cell number, transfection). Hit rule: 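Hit when the log firefly-to-Renilla ratio dropped or increased by a fixed fold versus the mean of GFP or LacZ controls across duplicate plates; lowering cut given as 1.5 and as 3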. Meaning of the calls: active = hit: reporter lowered or raised; inactive = no hit.
The deposit covers about 24,000 reagents; this is an unselected part of those with a known target gene and a result. Over the whole deposit, 246 (1%) are marked active. 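Plates not normalised; calls are printed but the firefly/Renilla ratio behind them is not deposited; fold cut for lowering reported inconsistently.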 Raw values are not corrected between plates. Names joined by + are all predicted targets of the reagent. The record does not give: the amount of reagent.

Against betaNACtes4 (GeneID 32389) [DRSC19801], the entry reads firefly reporter light, replicate 1 = 4.32e5; firefly reporter light, replicate 2 = 3.63e5; Renilla control light, replicate 1 = 2.54e6; Renilla control light, replicate 2 = 2.89e6; inactive.
Depletion of att-ORFB + DPCoAC [DRSC15556] gave: firefly reporter light, replicate 1 = 2.03e5; firefly reporter light, replicate 2 = 2.95e5; Renilla control light, replicate 1 = 2.63e6; Renilla control light, replicate 2 = 3.00e6; inactive.
With knock-down of CG2157 (GeneID 32018) [DRSC19836], the screen gave firefly reporter light, replicate 1 = 6.30e5; firefly reporter light, replicate 2 = 5.32e5; Renilla control light, replicate 1 = 4.53e6; Renilla control light, replicate 2 = 3.68e6; inactive.
With knock-down of CG4404 (GeneID 32241) [DRSC19897], the record shows firefly reporter light, replicate 1 = 1.21e5; firefly reporter light, replicate 2 = 1.29e5; Renilla control light, replicate 1 = 1.69e6; Renilla control light, replicate 2 = 2.01e6; inactive.
Knock-down of CG4404 (GeneID 32241) [DRSC23956] gave: firefly reporter light, replicate 1 = 9.16e5; firefly reporter light, replicate 2 = 9.66e5; Renilla control light, replicate 1 = 1.03e6; Renilla control light, replicate 2 = 8.27e5; inactive.
Depletion of Cda5 (GeneID 33158) [DRSC00529] resulted in: firefly reporter light, replicate 1 = 74098; firefly reporter light, replicate 2 = 1.09e5; Renilla control light, replicate 1 = 4.31e5; Renilla control light, replicate 2 = 5.77e5; inactive.
For Cda5 (GeneID 33158) [DRSC00532] the deposit lists firefly reporter light, replicate 1 = 1.71e5; firefly reporter light, replicate 2 = 1.21e5; Renilla control light, replicate 1 = 6.97e5; Renilla control light, replicate 2 = 6.43e5; inactive.
For Cda5 (GeneID 33158) [DRSC21330] the deposit lists firefly reporter light, replicate 1 = 8.72e5; firefly reporter light, replicate 2 = 7.77e5; Renilla control light, replicate 1 = 2.28e6; Renilla control light, replicate 2 = 1.65e6; inactive.

2 successive entries already listed, for reference:
Cda5 (GeneID 33158) [DRSC00532] → firefly reporter light, replicate 1 = 1.71e5; firefly reporter light, replicate 2 = 1.21e5; Renilla control light, replicate 1 = 6.97e5; Renilla control light, replicate 2 = 6.43e5; outcome = inactive
Cda5 (GeneID 33158) [DRSC21330] → firefly reporter light, replicate 1 = 8.72e5; firefly reporter light, replicate 2 = 7.77e5; Renilla control light, replicate 1 = 2.28e6; Renilla control light, replicate 2 = 1.65e6; outcome = inactive

Continued:
Against scw (GeneID 46000) [DRSC01711] the deposit lists firefly reporter light, replicate 1 = 1.37e5; firefly reporter light, replicate 2 = 1.59e5; Renilla control light, replicate 1 = 5.44e5; Renilla control light, replicate 2 = 6.91e5; inactive.
With knock-down of scw (GeneID 46000) [DRSC21252], the screen gave firefly reporter light, replicate 1 = 2.38e5; firefly reporter light, replicate 2 = 1.50e5; Renilla control light, replicate 1 = 7.29e5; Renilla control light, replicate 2 = 3.99e5; inactive.
After knock-down of sav (GeneID 252554) [DRSC14681], the screen gave firefly reporter light, replicate 1 = 1.79e5; firefly reporter light, replicate 2 = 2.01e5; Renilla control light, replicate 1 = 2.77e6; Renilla control light, replicate 2 = 2.71e6; inactive.
With knock-down of sav (GeneID 252554) [DRSC14682] the results were firefly reporter light, replicate 1 = 1.09e5; firefly reporter light, replicate 2 = 1.38e5; Renilla control light, replicate 1 = 1.99e6; Renilla control light, replicate 2 = 2.20e6; inactive.
Knock-down of ttm2 (GeneID 38049) [DRSC08268] resulted in: firefly reporter light, replicate 1 = 89977; firefly reporter light, replicate 2 = 79620; Renilla control light, replicate 1 = 1.35e6; Renilla control light, replicate 2 = 1.24e6; inactive.
With knock-down of Smug (GeneID 42078) [DRSC15762], the record shows firefly reporter light, replicate 1 = 1.17e5; firefly reporter light, replicate 2 = 1.35e5; Renilla control light, replicate 1 = 1.65e6; Renilla control light, replicate 2 = 2.49e6; inactive.
